According to patent publication US20100292175A1, “USE OF HYDROXYFLAVAN DERIVATIVES FOR TASTE MODIFICATION” (Leibniz-Institut fur Pflanzenbiochemie, priority 2009, published 2010):

Key:
[1] = Bitter reduction of a bitter substance solution (caffeine), panel of experts; type: in vivo; conditions: 50 ppm substance + 500 ppm caffeine
Excerpt: To quantify the reduction (i.e. the masking or reduction) of the bitter sensation in a sample, the bitterness of a solution containing 500 ppm of caffeine was compared by a panel of experts in each case with a sample which contained 500 ppm of caffeine and additionally 50 ppm or 100 ppm of a substance to be assessed (in respect of the bitter-reduction ability) (grading: 1 [not bitter] to 10 [extremely bitter]).
For the evaluation, i.e. the calculation of the reduction (in %) of the bitter sensation, the mean values of the assessments by the panel of experts of the caffeine solution and the sample, to be compared, containing caffeine and a substance to be assessed were used in each case. In this respect, 2,4-dihydroxybenzoic acid (2,4-DHB) was used as the comparison (reference) according to U.S. Pat. No. 5,643,941.

[2] = in vivo; cited from earlier work

| Compound | Observations on the sensory analysis of the sample [1] | primary taste [2] |
| --- | --- | --- |
| COc1cc(C2CCc3ccc(O)cc3O2)ccc1O (centres unmarked) [compound 3, 4′,7-dihydroxy-3″-methoxyflavan] | Slightly tart, |  |
| COc1cc(C2CCc3c(O)cc(O)cc3O2)ccc1O (centres unmarked) [compound 16, 4′,5,7-trihydroxy-3′-methoxyflavan] | smoother, |  |
| COc1ccc(C2CCc3c(O)cc(O)cc3O2)cc1O (centres unmarked) [compound 15, 3′,5,7-trihydroxy-4′-methoxyflavan] |  | primary sweet taste |
| COc1ccc(C2CCc3ccc(O)cc3O2)cc1O (racemic) [compound 2, 3′,7-dihydroxy-4′-methoxyflavan] | Sweet, | primary sweet taste |
